Measurements from the supplement of paper PMC12067093, “Discovery and optimisation of a covalent ligand for TRIM25 and its application to targeted protein ubiquitination” (Chemical Science, 2025).
Some of the results follow.

Compound: CC1Cc2ccccc2N1C(=O)C1CCCN(C1)C(=O)CCl (mixture of isomers) [TRIM25 ligand 11 (diastereomer mixture)]
Assay: probe-labelled cysteine peptide fold change vs DMSO (competition) (log2 fold change); higher = less target engagement (more negative = stronger competition)
Conditions: 50 µM; THP-1; incubation time: 4 h
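Note: competitive chemoproteomic profiling in live THP-1 cells with an iodoacetamide desthiobiotin (IA-DTB) probe, comparing probe-labelled peptide intensities in compound-treated cells against DMSO-treated controls.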

Target | probe-labelled cysteine peptide fold change
MYH9_P35579_917_QELEEICHDLEAR (UniProt P35579) | 0.055
MYO9B_Q13459_1876_ITTCVEMLIK (UniProt Q13459) | 0.00162
MYOF_Q9NZM1_1574_GLELQPQDNNGLCDPYIK (UniProt Q9NZM1) | 0.27
NCAPH_Q15003_255+267_TAASFDECSTAGVFLSTLHCQDYR (UniProt Q15003) | -0.00803
NCAPD2_Q15021_596_ESTGNMVTGQTVCK (UniProt Q15021) | -0.291
NAMPT_P43490_397_DLLNCSFK (UniProt P43490) | 0.0963
NAT10_Q9H0A0_255_ESLQDTQPVGVLVDCCK (UniProt Q9H0A0) | 0.179
NCAPH2_Q6IBW4_230_DTGRTEEQPMEVSVCR (UniProt Q6IBW4) | -0.383
MYO1G_B0I1T2_97_SRDTCIVISGESGAGK (UniProt B0I1T2) | 0.0895
NAA16_Q6N069_529_HFFEITDDQFDFHTYCMR (UniProt Q6N069) | 0.173
NAA50_Q9GZZ1_79_LYIMTLGCLAPYR (UniProt Q9GZZ1) | 0.132
NASP_P49321_254_SVSGTDVQEECR (UniProt P49321) | 0.0582
NCAPD2_Q15021_1229_DLAYCVSQLPLTER (UniProt Q15021) | 0.0629
NARS_O43776_511_KYGTCPHGGYGLGLER (UniProt O43776) | -0.0416
NCAPD3_P42695_1484_DTPACSR (UniProt P42695) | -0.156
NADK_O95544_69_SLHGPCPVTTFGPK (UniProt O95544) | -0.0588
NACC1_Q96RE7_464_ESEMNAIAADMCTNAR (UniProt Q96RE7) | 0.383
MYO1G_B0I1T2_618_LDENHCR (UniProt B0I1T2) | 0.247
NCBP1_Q09161_36_TSDANETEDHLESLICK (UniProt Q09161) | 0.0727
NAT1_P18440_223+233_SFCSLQTPDGVHCLVGFTLTHR (UniProt P18440) | 0.0089

Laid out differently: entries from further up.
Target	probe-labelled cysteine peptide fold change
NCAPH_Q15003_255+267_TAASFDECSTAGVFLSTLHCQDYR (UniProt Q15003)	-0.00803
NCAPD2_Q15021_596_ESTGNMVTGQTVCK (UniProt Q15021)	-0.291

The list goes on:

Target | probe-labelled cysteine peptide fold change
NCAPG2_Q86XI2_826_AFGLHCR (UniProt Q86XI2) | 0.226
NAT10_Q9H0A0_746_QTPNDLTGEHSCIMLK (UniProt Q9H0A0) | -0.047
NAA50_Q9GZZ1_100_MLNHVLNICEK (UniProt Q9GZZ1) | 0.0562
NCAPH_Q15003_267_TAASFDECSTAGVFLSTLHCQDYR (UniProt Q15003) | -0.337
NCAPD3_P42695_760_ISSQQNPNSNTLGHILCVIGHIAK (UniProt P42695) | -0.165
NCAM2_O15394_136_QGEDAEVVCR (UniProt O15394) | -0.169
NAA15_Q9BXJ9_214_EALEHLCTYEK (UniProt Q9BXJ9) | 0.117
NAA10_P41227_17_NARPEDLMNMQHCNLLCLPENYQMK (UniProt P41227) | -0.159
NAA35_Q5VZE5_420_DCIDSFVTHCVRPFCSLIQIHGHNR (UniProt Q5VZE5) | -0.139
NBAS_A2RRP1_1777_LQYYFTLLENCGCADLGNCAIKPETHIR (UniProt A2RRP1) | -0.138
NAGA_P17050_343_ASALVFFSCR (UniProt P17050) | -0.000148
NAPRT_Q6XQN6_463_VWPPGAQEPCTVRPAQVEPLLR (UniProt Q6XQN6) | 0.0586
MYSM1_Q5VVJ2_360_NLNDNEMLFHSCQMVEESHEEEELKPPEQEIEIDR (UniProt Q5VVJ2) | -0.244
MYO9A_B2RTY4_1226_ESSVDCLK (UniProt B2RTY4) | -0.124
NAE1_Q13564_384_LLCSNSAFLR (UniProt Q13564) | -0.00331
NAA10_P41227_194_GNSPPSSGEACR (UniProt P41227) | -0.143
NCAPG_Q9BPX3_509_EALENCITLQDFNR (UniProt Q9BPX3) | 0.0108
MYH9_P35579_896_LQLQEQLQAETELCAEAEELRAR (UniProt P35579) | -0.0747
MYO18A_Q92614_1699_NQLEESEFTCAAAVK (UniProt Q92614) | -0.111
